From paper PMC5533464
Results are given in words; binding and its absence hold for the method and conditions named. Binding seen in cells or lysates may run through a third protein. Some results given as binding are weak or reduced against the parent protein; the word gives no strength. Where a sequence is shown, tags or fusion partners need not be part of it.

Biological target: T1, AtCNGC4, BiFC fusion (Arabidopsis) (UniProt Q94AS9)
T1 sequence: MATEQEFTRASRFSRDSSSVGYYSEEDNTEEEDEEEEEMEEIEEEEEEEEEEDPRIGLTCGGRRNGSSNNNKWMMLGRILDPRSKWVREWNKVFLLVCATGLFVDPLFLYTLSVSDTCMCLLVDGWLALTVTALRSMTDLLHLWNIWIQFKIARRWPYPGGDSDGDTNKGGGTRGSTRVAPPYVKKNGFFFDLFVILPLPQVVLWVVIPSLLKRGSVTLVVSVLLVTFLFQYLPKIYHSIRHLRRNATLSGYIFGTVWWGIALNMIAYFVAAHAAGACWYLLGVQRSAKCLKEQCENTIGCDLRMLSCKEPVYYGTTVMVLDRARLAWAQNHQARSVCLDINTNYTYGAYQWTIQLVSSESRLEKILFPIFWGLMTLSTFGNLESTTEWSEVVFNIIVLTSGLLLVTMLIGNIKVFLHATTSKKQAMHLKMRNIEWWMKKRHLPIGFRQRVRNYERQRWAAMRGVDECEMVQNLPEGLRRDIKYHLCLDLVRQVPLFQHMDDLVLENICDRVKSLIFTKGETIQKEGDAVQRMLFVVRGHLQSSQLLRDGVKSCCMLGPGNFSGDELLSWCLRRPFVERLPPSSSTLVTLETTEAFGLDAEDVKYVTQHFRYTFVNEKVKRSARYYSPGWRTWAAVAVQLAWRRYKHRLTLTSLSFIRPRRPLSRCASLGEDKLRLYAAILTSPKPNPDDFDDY
Test: split reporter; BiFC with eYFP halves (pSPYNE173, pSPYCE(M)); Agrobacterium EHA105 co-infiltrated into N. benthamiana leaves with the p19 strain and the PM marker PIP2;1-mCherry; confocal microscopy 48-72 h after infiltration

binding: binds
B1: AtCNGC2, BiFC fusion (protein, UniProt O65718 1-726)
chain: MPSHPNFIFRWIGLFSDKFRRQTTGIDENSNLQINGGDSSSSGSDETPVLSSVECYACTQVGVPAFHSTSCDQAHAPEWRASAGSSLVPIQEGSVPNPARTRFRRLKGPFGEVLDPRSKRVQRWNRALLLARGMALAVDPLFFYALSIGRTTGPACLYMDGAFAAVVTVLRTCLDAVHLWHVWLQFRLAYVSRESLVVGCGKLVWDPRAIASHYARSLTGFWFDVIVILPVPQAVFWLVVPKLIREEKVKLIMTILLLIFLFQFLPKIYHCICLMRRMQKVTGYIFGTIWWGFALNLIAYFIASHVAGGCWYVLAIQRVASCIRQQCMRTGNCNLSLACKEEVCYQFVSPTSTVGYPCLSGNLTSVVNKPMCLDSNGPFRYGIYRWALPVISSNSLAVKILYPIFWGLMTLSTFANDLEPTSNWLEVIFSIVMVLSGLLLFTLLIGNIQVFLHAVMAKKRKMQIRCRDMEWWMKRRQLPSRLRQRVRRFERQRWNALGGEDELELIHDLPPGLRRDIKRYLCFDLINKVPLFRGMDDLILDNICDRAKPRVFSKDEKIIREGDPVQRMIFIMRGRVKRIQSLSKGVLATSTLEPGGYLGDELLSWCLRRPFLDRLPPSSATFVCLENIEAFSLGSEDLRYITDHFRYKFANERLKRTARYYSSNWRTWAAVNIQMAWRRRRKRTRGENIGGSMSPVSENSIEGNSERRLLQYAAMFMSIRPHDHLE
